Laboratory results: patent US5411707A, “Vacuum extractor incorporating a condenser column” (priority 1994, dated 1995)
Like-named read-outs stand apart in the source and are kept apart here.

Assays:
[1] = Method detection limits for volatile organic analytes in soil (Table 7); conditions: 4 ppb, average of three nonconsecutive-day studies, values marked ^c: MDL exceed concentration studies
[2] = Method detection limits for volatile organic analytes in water (Table 6); conditions: 5 mL water, 4 ppb; for Method Detection Limit, External Standard Method: average of three nonconsecutive-day studies; for Method Detection Limit, Internal Standard Method: d3-vinylchloride internal standard
[3] = Recovery of volatile organic analytes from spiked soil (Table 5); conditions: 50 ppb, condenser -10° C.; for Recovery, Soil/Oil Water: 5 g soil + 1 g cod liver oil + water slurry; for Recovery, Soil/Oil: 5 g soil + 1 g cod liver oil, spiked using 0.2 ml water; for Recovery, Soil/Water: 5 g soil + 5 ml water slurry, 10 min
[4] = Recovery of volatile organic analytes from spiked water and cod liver oil/water emulsion (Table 3); conditions: 10 min, condenser -10° C., ± one sigma; for Recovery, H2O/Oil 20 mL: 1 g cod liver oil and 20 ml water emulsion; for Recovery, H2O/Oil 5 mL: 1 gram cod liver oil and 5 ml water emulsion; for Recovery, Water 5 mL: 5 mL water, relative to internal standard d3-vinylchloride; for Recovery, Water 20 mL: 20 mL water, relative to d3-vinylchloride
[5] = 1 gram cod liver oil, composite of 25, 50 and 200 ppb spikes, 10 min, condenser -10° C.

| Compound | Oil Recovery [5] [%] | MDL, External Standard Method [1] [ppb] | MDL, Internal Standard Method [1] [ppb] | Method Detection Limit, External Standard Method [2] [PPb] | Method Detection Limit, Internal Standard Method [2] [PPb] | Recovery, Soil/Oil Water [3] [%] | Recovery, Soil/Oil [3] [%] | Recovery, Soil/Water [3] [%] | Recovery, H2O/Oil 20 mL [4] [%] | Recovery, H2O/Oil 5 mL [4] [%] | Recovery, Water 5 mL [4] [%] | Recovery, Water 20 mL [4] [%] | Oil Recovery |
| --- | --- | --- | --- | --- | --- | --- | --- | --- | --- | --- | --- | --- | --- |
| ClC(Cl)=C(Cl)Cl [Tetrachloroethene] | 30 ± 5 | 2.6 | 1.4 | 1.8 | 1.8 | 43 ± 6 | 62 ± 17 | 56 ± 16 | 46 ± 8 | 47 ± 11 | 91 ± 11 | 85 ± 19 |  |
| BrC(Br)Br [Bromoform] | 19 ± 7 | 2.5 | 1.5 | 2.3 | 2.1 | 34 ± 3 | 30 | 81 ± 21 | 34 ± 7 | 35 ± 8 | 85 ± 19 | 83 ± 23 |  |
| CC(=O)CC(C)C [4-Methyl-2-pentanone] | 100 ± 33 | 3.9 | 4.4 | 3.8 | 3.7 | 81 ± 12 | 143 ± 28 | 79 ± 24 | 29 ± 6 | 43 ± 7 | 69 ± 20 | 54 ± 22 |  |
| CC(Cl)CCl (centres unmarked) [1,2-Dichloropropane] | 47 ± 11 | 3.7 | 3.0 | 2.9 | 2.5 | 53 ± 9 | 79 ± 14 | 56 ± 17 | 58 ± 16 | 67 ± 11 | 89 ± 14 | 86 ± 18 |  |
| CCCCC(C)=O [2-Hexanone] | 67 ± 9 | 4.6 | 3.3 | 4.6 | 4.7 | 57 ± 5 | 82 ± 19 | 99 ± 20 | 42 ± 7 | 66 ± 8 | 54 ± 17 | 56 ± 24 |  |
| Fc1ccc(F)cc1 [1,4-Difluorobenzene, reference compound] | 49 ± 5 |  |  |  |  | 48 ± 7 | 77 ± 10 | 54 ± 13 |  | 65 ± 10 | 89 ± 11 | 83 ± 17 |  |
| C=COC(C)=O [Vinyl Acetate] | 114 ± 33 |  |  |  |  |  |  | 83 ± 12 | 74 ± 11 | 87 ± 21 | 72 ± 13 | 82 ± 22 |  |
| [2H]c1c([2H])c([2H])c(Cl)c([2H])c1[2H] [Chlorobenzene-d5, reference compound] | 24 ± 4 |  |  |  |  | 34 ± 5 | 50 ± 10 | 63 ± 15 |  | 41 ± 10 | 90 ± 11 | 88 ± 20 |  |
| ClC(Cl)Cl [Chloroform] |  | 2.6 | 1.9 | 2.7 | 2.5 | 126 ± 4 |  | 114 ± 28 | 70 ± 9 | 75 ± 12 | 94 ± 14 | 86 ± 16 | 60 ± 7 |
| ClCBr [Bromochloromethane, reference compound] | 61 ± 8 |  |  |  |  | 112 ± 15 | 175 ± 14 | 111 ± 24 |  | 79 ± 10 | 82 ± 12 | 83 ± 19 |  |
| Cl/C=C/CCl [trans-1,3-Dichloropropene] | 34 ± 5 | 2.4 | 1.8 | 2.3 | 1.9 | 51 ± 5 | 66 ± 18 | 70 ± 18 | 53 ± 9 | 54 ± 9 | 94 ± 15 | 87 ± 18 |  |
| ClC(Cl)C(Cl)Cl [1,1,2,2-Tetrachloroethane] | 25 ± 10 | 3.2 | 2.0 | 3.6 | 2.8 | 35 ± 5 | 26 ± 9 | 75 ± 22 | 28 ± 7 | 34 ± 17 | 78 ± 20 | 72 ± 20 |  |
| Cc1ccccc1 [Toluene] |  |  |  |  |  |  |  | 50 ± 13 | 50 ± 9 | 51 ± 10 | 89 ± 11 | 81 ± 24 | 48 ± 9 |
| ClCCl [Methylene Chloride] |  | 3.3 | 4.0 | 3.1 | 3.0 | 84 ± 5 | 114 ± 12 | 66 ± 15 | 111 ± 30 | 111 ± 20 | 72 ± 13 | 87 ± 10 |  |
| Cl/C=C/Cl [trans-1,2-Trichloroethane] | 79 ± 14 |  |  |  |  | 63 ± 5 | 105 ± 14 | 59 ± 19 |  |  |  |  |  |
| c1ccccc1 [Benzene] |  |  |  |  |  | 83 ± 5 |  | 54 ± 12 | 68 ± 10 | 80 ± 12 | 86 ± 9 | 83 ± 15 | 81 ± 12 |
| [2H]c1c([2H])c([2H])c(C([2H])([2H])[2H])c([2H])c1[2H] [Toluene-d8, reference compound] |  |  |  |  |  | 39 ± 4 | 62 ± 15 | 50 ± 14 | 54 ± 8 | 52 ± 9 | 93 ± 11 | 85 ± 18 | 41 ± 5 |
